Assay results taken from publication PMC7036253.
Results are given in words; binding and its absence hold for the method and conditions named. In cells and extracts the contact can be indirect. Some entries that bind do so weakly or less than the wild type.

Amino acid sequences for entries named in this document (tags omitted).
UniProt P40763: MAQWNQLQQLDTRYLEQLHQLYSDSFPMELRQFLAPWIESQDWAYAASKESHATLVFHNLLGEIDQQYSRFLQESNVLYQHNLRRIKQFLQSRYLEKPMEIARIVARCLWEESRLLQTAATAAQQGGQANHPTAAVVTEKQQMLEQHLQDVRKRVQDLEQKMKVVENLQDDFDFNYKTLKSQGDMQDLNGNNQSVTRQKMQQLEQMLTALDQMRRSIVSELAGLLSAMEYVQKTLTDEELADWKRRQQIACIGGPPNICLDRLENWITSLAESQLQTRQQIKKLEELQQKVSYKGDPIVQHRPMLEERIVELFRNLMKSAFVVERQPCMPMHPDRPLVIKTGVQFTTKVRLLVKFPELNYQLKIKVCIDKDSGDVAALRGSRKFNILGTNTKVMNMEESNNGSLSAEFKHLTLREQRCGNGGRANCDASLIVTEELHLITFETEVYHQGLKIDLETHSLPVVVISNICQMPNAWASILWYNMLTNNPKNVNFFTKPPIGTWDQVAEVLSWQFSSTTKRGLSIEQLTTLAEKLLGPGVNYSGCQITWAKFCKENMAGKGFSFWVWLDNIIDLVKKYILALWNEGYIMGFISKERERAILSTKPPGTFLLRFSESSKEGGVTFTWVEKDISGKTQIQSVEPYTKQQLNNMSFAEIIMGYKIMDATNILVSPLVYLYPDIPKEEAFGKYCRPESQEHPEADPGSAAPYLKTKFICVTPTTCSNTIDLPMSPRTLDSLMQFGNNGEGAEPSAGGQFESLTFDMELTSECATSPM
UniProt P45973: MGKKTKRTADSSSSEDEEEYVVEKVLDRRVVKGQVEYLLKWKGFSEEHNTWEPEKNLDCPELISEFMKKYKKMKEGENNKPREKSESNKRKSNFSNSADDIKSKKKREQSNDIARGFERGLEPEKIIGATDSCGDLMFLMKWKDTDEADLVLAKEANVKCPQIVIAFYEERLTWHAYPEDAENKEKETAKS

Legend:
[1] = target: STAT3 (Signal Transducer and Activator of Transcription 3), endogenous (human (endogenous in A549)) (UniProt P40763); assay: FRET or BRET; fixed A549 cells immunostained with anti-HP1α-Alexa488 (donor) and anti-STAT3-Alexa546 (acceptor) primary and secondary antibody pairs; Leica confocal microscope with FRET software; untreated cells
[2] = target: STAT3 (Signal Transducer and Activator of Transcription 3), endogenous (human (endogenous in A549)) (UniProt P40763); assay: co-IP; A549 cell lysates (200 μg protein; 50 mM Tris-HCl pH 8.0, 250 mM NaCl, 5 mM EDTA, 1 mM DTT, 5% glycerol) immunoprecipitated overnight at 4 °C with anti-STAT3 or anti-HP1α bound to protein G-agarose; Western blot of endogenous proteins

Heterochromatin Protein 1 alpha (HP1α), endogenous (from UniProt P45973 1-191)
binding [1]: binds | binding [2]: binds
